Experimental data taken from the supplement of paper PMC11348887.
Counter-ions that a name gives are not always drawn. This is one part of the list. Most values lie at the level of the controls, where differences are scatter.

tested on: hPSC-derived cortical neurons (WA09); test: KCl-induced FOS+/EGR-1+ double-positive nuclei fraction z-score (KCl minus unstimulated); higher = stronger activity-induced IEG response; settings: 5 µM; treatment: days 7-14 after plating, readout day 21

Compound | KCl-induced FOS+/EGR-1+ double-positive nuclei fraction z-score
CC(C)c1ccc2c(c1)c(SC(C)(C)C)c(CC(C)(C)C(=O)O)n2Cc1ccc(Cl)cc1 | -0.161
CCCSc1ccc2[nH]c(NC(=O)OC)nc2c1 [Albendazole] | -0.372
CCN1CCCC1CNC(=O)c1cc(S(N)(=O)=O)ccc1OC (stereo unspecified) [Sulpiride] | 0.229
C[C@H](Cn1cnc2c(N)ncnc21)OCP(=O)(O)O [Tenofovir] | 0.0925
CCc1cc2c(cc1CC)CC(NC[C@H](O)c1ccc(O)c3[nH]c(=O)ccc13)C2 [Indacaterol Maleate] | -0.0019
O=C(Cc1cccc(OC(F)(F)F)c1)Nc1ccc(CCCCc2nnc(NC(=O)Cc3ccccn3)s2)nn1 | 0.967
COCCOc1ccc2c(c1)ncn2-c1ccc2cccc(N3CCC(N)CC3)c2n1 | -1.21
CC1(C)S[C@@H]2[C@H](NC(=O)[C@H](N)c3ccc(O)cc3)C(=O)N2[C@H]1C(=O)O [Amoxicillin Sodium] | 0.949
CN(C/C=C/C#CC(C)(C)C)Cc1cccc2ccccc12 [Terbinafine] | -0.127
COc1ccc(C2CC(c3ccccc3)=NN2c2ccc(S(N)(=O)=O)cc2)cc1 (stereo unspecified) | 1.36
Cn1cc(-c2ccc3c(c2)CCN3C(=O)Cc2cccc(C(F)(F)F)c2)c2c(N)ncnc21 | 0.525

Some of the entries so far, field by field.
CN(C/C=C/C#CC(C)(C)C)Cc1cccc2ccccc12 [Terbinafine]
  KCl-induced FOS+/EGR-1+ double-positive nuclei fraction z-score: -0.127
COc1ccc(C2CC(c3ccccc3)=NN2c2ccc(S(N)(=O)=O)cc2)cc1 (stereo unspecified)
  KCl-induced FOS+/EGR-1+ double-positive nuclei fraction z-score: 1.36
